The values below come from paper PMC2170442.

By UniProt entry, the sequences of proteins in these tests, tags left out.
UniProt P27588: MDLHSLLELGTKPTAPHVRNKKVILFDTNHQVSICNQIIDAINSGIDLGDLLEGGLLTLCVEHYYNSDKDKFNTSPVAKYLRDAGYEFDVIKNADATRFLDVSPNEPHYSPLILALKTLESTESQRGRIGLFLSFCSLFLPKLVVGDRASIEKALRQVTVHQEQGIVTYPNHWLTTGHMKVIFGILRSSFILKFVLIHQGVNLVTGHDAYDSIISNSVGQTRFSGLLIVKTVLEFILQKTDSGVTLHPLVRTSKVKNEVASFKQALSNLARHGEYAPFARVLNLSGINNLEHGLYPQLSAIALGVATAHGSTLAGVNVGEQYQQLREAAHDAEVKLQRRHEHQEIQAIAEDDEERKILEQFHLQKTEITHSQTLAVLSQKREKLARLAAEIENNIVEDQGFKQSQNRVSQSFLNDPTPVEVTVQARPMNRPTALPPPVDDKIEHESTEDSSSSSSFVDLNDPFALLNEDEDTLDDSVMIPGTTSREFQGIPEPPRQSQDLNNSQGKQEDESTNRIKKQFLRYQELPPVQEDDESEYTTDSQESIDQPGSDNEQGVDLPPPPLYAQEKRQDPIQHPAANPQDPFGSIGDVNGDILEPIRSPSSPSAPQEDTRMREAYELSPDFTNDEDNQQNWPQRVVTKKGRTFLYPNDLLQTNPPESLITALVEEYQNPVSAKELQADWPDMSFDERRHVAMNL
UniProt P35259: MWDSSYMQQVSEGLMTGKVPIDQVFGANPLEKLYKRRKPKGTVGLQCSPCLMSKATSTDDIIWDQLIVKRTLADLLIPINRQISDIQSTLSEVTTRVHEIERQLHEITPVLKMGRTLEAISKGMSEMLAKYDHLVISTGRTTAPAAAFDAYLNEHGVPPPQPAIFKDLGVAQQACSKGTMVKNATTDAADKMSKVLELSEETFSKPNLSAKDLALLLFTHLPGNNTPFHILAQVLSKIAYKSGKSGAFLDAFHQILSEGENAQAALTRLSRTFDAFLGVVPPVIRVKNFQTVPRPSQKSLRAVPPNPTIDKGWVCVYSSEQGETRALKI

Results are given in words; binding and its absence hold for the method and conditions named. In cells and extracts the contact can be indirect. Some entries that bind do so weakly or less than the wild type.

For assay [1], the target named is GST-NP (Marburg virus nucleoprotein fused to GST) (Marburg virus (MARV)) (UniProt P27588). The assay is described as follows: pull-down; […]) and buffer 2 (500 mM NaCl); […]; only the target purified.
Assay [2] has as its target GST-VP35 (Marburg virus VP35 fused to GST) (Marburg virus (MARV)) (UniProt P35259). Nature of the assay: pull-down; […] (200 mM NaCl) and buffer 2 (500 mM NaCl); […]; only the target purified.

For the substance “Marburg virus nucleoprotein (NP), in vitro translated (from UniProt P27588 1-695)”, the binding result in assay [1] and in assay [2] was “binds” throughout.
